Test results published in patent US10905680B2, “Methods of treatment for cholestatic and fibrotic diseases” (Genfit, priority 2016, dated 2021).
At least one compound was matched to its structure with a doubt left.

Tests used:
[1] = tested on: rat primary hepatic stellate cells (rHSC); experiment: TGFβ1-induced expression of α-SMA protein in rat HSC (ELISA); type: cell-based; settings: TGFβ1 3 ng/ml, 48 hours
Experimental: NTZ (A) or TZ (B) were added to serum-deprived rat HSC (rHSC) 1 hour before the activation with TGFβ1 (3 ng/ml). After 48 hours of incubation, the expression of α-SMA was measured by ELISA. The obtained values were transformed into percentage inhibition over TGFβ1 control. Data are presented as mean (triplicates)±standard deviation (SD). Statistical analyses were performed by one-way ANOVA followed by Bonferroni post-hoc tests, using Sigma Plot 11.0 software. [*: p<0.05; **: p<0.01; ***: p<0.001 (comparison versus TGFβ1 3 ng/mL group)]. The rat primary hepatic stellate cells (rHSC) (Innoprot) were cultured in STeCM medium (ScienCell cat #5301) that was supplemented with 2% fetal bovine serum (FBS, ScienCell cat #0010), 1% penicillin/streptomycin (ScienCell cat #0503) and stellate cell growth supplement (SteCGS; ScienCell cat #5352). For the activation experiments with TGFβ1, the rHSC were plated at a density of 10×10^3 cells per well in 96-well plates. The next day, cell culture medium was removed, and cells were washed with PBS (Invitrogen cat #14190). rHSC were deprived for 24 hours in serum-free and SteCGS-free medium. […] The level of α-SMA was measured using a Sandwich ELISA. […]

[2] = tested on: Normal Human Cardiac Fibroblasts (ventricle) (NHCF-V); experiment: TGFβ1-induced expression of α-SMA protein in human cardiac fibroblasts (ELISA); type: cell-based; settings: concentration of 1 μM; TGFβ1 3 ng/ml, 48 hours
Experimental: NTZ (A) or TZ (B) were added to serum-deprived cardiac fibroblasts (NHCF) 1 hour before the activation with TGFβ1 (3 ng/ml). After 48 hours of incubation, the expression of α-SMA was measured by ELISA. The obtained values were transformed into percentage inhibition over TGFβ1 control. Data are presented as mean (triplicates)±standard deviation (SD). Statistical analyses were performed by one-way ANOVA followed by Bonferroni post-hoc tests, using Sigma Plot 11.0 software. [*: p<0.05; **: p<0.01; ***: p<0.001 (comparison versus TGFβ1 3 ng/mL group)].
The Normal Human Cardiac Fibroblasts (ventricle) (NHCF-V) (Lonza) were isolated from normal adult heart tissue. Cells were cultured in Fibroblast Basal Medium (FBM) (Lonza cat # CC-3131) that was supplemented with FGM™-3 BulletKit™ kit (Lonza cat # CC-4525). The complete medium contains 10% fetal bovine serum. For the activation experiments with TGFβ1, the NHCF-V were plated at a density of 6×10^3 cells per well in 96-well plates. The next day, cell-culture medium was removed, and cells were washed with PBS (Invitrogen cat #14190). NHCF were deprived for 24 hours in serum-free, insulin-free and rhFGF-B-free medium. […]
The level of α-SMA was measured using a Sandwich ELISA. […]

## CC(=O)Oc1ccccc1C(=O)Nc1ncc([N+](=O)[O-])s1 [NTZ, [2-[(5-nitro-1,3-thiazol-2-yl)carbamoyl]phenyl]ethanoate]
[1]
  α-SMA levels in TGFβ-activated HSC derived from rat: reduced
[2]
  antifibrotic effects (α-SMA) in normal human cardiac fibroblasts: significant antifibrotic effects
